Literature values, collected in patent US8394429B2, “Herbal composition for reducing ADD/ADHD and method thereof” (Nisarga Biotech Pvt. Ltd., priority 2008, dated 2013).
Some results were stated once for a whole list of compounds, not compound by compound.

Details: standard treatment modalities

CNCC[C@@H](Oc1ccccc1C)c1ccccc1 [atomoxetine]
discontinuations for adverse events: more than 10%
